Experimental data: paper PMC2661024
Results are given in words; binding and its absence hold for the method and conditions named. Binding seen in cells or lysates may run through a third protein. Some results given as binding are weak or reduced against the parent protein; the word gives no strength.

By UniProt entry, the sequences of proteins in these tests, tags left out.
UniProt Q15075: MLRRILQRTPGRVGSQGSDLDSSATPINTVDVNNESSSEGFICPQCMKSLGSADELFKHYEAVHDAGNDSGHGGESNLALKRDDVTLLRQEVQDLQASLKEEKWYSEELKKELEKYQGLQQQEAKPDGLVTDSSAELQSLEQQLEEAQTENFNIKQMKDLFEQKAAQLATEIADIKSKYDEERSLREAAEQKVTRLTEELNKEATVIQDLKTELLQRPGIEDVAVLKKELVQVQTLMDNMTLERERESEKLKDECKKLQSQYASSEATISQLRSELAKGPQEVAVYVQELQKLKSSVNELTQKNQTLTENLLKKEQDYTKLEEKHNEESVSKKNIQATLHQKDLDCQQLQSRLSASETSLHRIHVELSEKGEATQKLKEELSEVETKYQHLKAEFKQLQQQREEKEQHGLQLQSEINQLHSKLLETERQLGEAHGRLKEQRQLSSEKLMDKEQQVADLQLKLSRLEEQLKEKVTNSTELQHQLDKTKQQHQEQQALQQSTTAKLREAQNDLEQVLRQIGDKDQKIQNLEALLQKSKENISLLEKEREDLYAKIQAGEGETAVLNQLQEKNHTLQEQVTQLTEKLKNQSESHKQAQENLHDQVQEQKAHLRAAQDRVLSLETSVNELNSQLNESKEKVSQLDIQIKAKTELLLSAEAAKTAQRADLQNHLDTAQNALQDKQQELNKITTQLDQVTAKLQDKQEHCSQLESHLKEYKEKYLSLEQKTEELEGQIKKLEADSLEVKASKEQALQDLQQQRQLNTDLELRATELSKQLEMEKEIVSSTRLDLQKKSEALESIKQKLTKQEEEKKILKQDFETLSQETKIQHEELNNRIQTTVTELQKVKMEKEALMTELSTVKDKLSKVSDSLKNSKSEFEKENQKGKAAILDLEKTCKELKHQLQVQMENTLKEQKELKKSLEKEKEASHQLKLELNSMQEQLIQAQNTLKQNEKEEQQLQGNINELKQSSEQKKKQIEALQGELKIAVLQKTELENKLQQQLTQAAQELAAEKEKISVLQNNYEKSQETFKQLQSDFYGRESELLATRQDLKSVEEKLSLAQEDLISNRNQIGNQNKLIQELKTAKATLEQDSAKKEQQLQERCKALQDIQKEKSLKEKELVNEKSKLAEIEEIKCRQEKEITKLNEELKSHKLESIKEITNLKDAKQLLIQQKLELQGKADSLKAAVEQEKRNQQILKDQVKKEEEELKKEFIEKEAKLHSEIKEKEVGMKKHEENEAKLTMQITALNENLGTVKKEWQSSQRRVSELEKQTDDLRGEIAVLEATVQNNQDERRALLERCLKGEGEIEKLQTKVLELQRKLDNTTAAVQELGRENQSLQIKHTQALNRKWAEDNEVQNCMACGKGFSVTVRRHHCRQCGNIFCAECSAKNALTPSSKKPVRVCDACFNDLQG

Molecular target: Cif virulence factor (Pseudomonas aeruginosa (strain UCBPP-PA14))
Experiment: co-IP

early endosomal antigen (EEA)-1 (from UniProt Q15075 1-1411)
binding: binds
